# Measured values taken from the supplement of paper PMC11438910.
# Some of the results follow. The signal is at background level for most entries.
# B1: 4-99.1 (protein)
# chain 1: QVQLQESGPGLVKPSETLSLTCAVSGDSISSGYFWGWIRQPPGKGLEYIGYISGESGNTYDNPSLKSRVTISKDTSKNQFSLNLRSVTAADTAVYYCARRTVYIGFDYWGQGVLVTVSS
# chain 2: QAAPTQPPSVSGSPGQSVTISCTGTSSDIGYYNAVSWYQQHPGKAPKLMIYEVSKRPSGVSDRFSGSKSGTTASLTISGLQAEDEADYYCSSYAGTNTYIFGAGTRLTVL
# What was measured:
# Assay in all cases: fluorescence intensity of antibody binding to polysaccharide-coupled beads; higher = stronger binding
# [1] = molecular target: pneumococcal polysaccharide Pn34
# [2] = molecular target: pneumococcal polysaccharide Pn35A
# [3] = molecular target: pneumococcal polysaccharide Pn35B
# [4] = molecular target: pneumococcal polysaccharide Pn35C
# [5] = molecular target: pneumococcal polysaccharide Pn35F
# [6] = molecular target: pneumococcal polysaccharide Pn36
# [7] = molecular target: pneumococcal polysaccharide Pn37
# [8] = molecular target: pneumococcal polysaccharide Pn38
# [9] = molecular target: pneumococcal polysaccharide Pn39
# [10] = molecular target: pneumococcal polysaccharide Pn4
# [11] = molecular target: pneumococcal polysaccharide Pn40
# [12] = molecular target: pneumococcal polysaccharide Pn41A
# [13] = molecular target: pneumococcal polysaccharide Pn41F
# [14] = molecular target: pneumococcal polysaccharide Pn42
# [15] = molecular target: pneumococcal polysaccharide Pn43
# [16] = molecular target: pneumococcal polysaccharide Pn44
# [17] = molecular target: pneumococcal polysaccharide Pn45
# [18] = molecular target: pneumococcal polysaccharide Pn46
# [19] = molecular target: pneumococcal polysaccharide Pn47A
# [20] = molecular target: pneumococcal polysaccharide Pn47F
# [21] = molecular target: pneumococcal polysaccharide Pn48
# [22] = molecular target: pneumococcal polysaccharide Pn5
# [23] = molecular target: pneumococcal polysaccharide Pn6A
# [24] = antibody concentration 0.1 ng/mL
# [25] = antibody concentration 0.534724 ng/mL
# [26] = antibody concentration 2.8593 ng/mL
# [27] = antibody concentration 15.2894 ng/mL
# [28] = antibody concentration 81.7561 ng/mL
# [29] = antibody concentration 437.17 ng/mL
# [30] = antibody concentration 2337.65 ng/mL
# [31] = antibody concentration 12500 ng/mL
binder,measurement,setting,value
B1,fluorescence intensity,[1]; [24],14 MFI
same,fluorescence intensity,[1]; [25],14 MFI
same,fluorescence intensity,[1]; [26],14 MFI
same,fluorescence intensity,[1]; [27],14.8 MFI
same,fluorescence intensity,[1]; [28],14 MFI
same,fluorescence intensity,[1]; [29],14.5 MFI
same,fluorescence intensity,[1]; [30],14.2 MFI
same,fluorescence intensity,[1]; [31],24.5 MFI
same,fluorescence intensity,[2]; [24],18 MFI
same,fluorescence intensity,[2]; [25],17.2 MFI
same,fluorescence intensity,[2]; [26],17 MFI
same,fluorescence intensity,[2]; [27],17 MFI
same,fluorescence intensity,[2]; [28],17 MFI
same,fluorescence intensity,[2]; [29],18 MFI
same,fluorescence intensity,[2]; [30],24.5 MFI
same,fluorescence intensity,[2]; [31],143 MFI
same,fluorescence intensity,[3]; [24],18.8 MFI
same,fluorescence intensity,[3]; [25],18.2 MFI
same,fluorescence intensity,[3]; [26],18.8 MFI
same,fluorescence intensity,[3]; [27],18 MFI
same,fluorescence intensity,[3]; [28],18 MFI
same,fluorescence intensity,[3]; [29],19.5 MFI
same,fluorescence intensity,[3]; [30],26 MFI
same,fluorescence intensity,[3]; [31],85.5 MFI
same,fluorescence intensity,[4]; [24],20 MFI
same,fluorescence intensity,[4]; [25],20 MFI
same,fluorescence intensity,[4]; [26],19 MFI
same,fluorescence intensity,[4]; [27],21 MFI
same,fluorescence intensity,[4]; [28],20.5 MFI
same,fluorescence intensity,[4]; [29],21.5 MFI
same,fluorescence intensity,[4]; [30],21.5 MFI
same,fluorescence intensity,[4]; [31],28.5 MFI
same,fluorescence intensity,[5]; [24],21 MFI
same,fluorescence intensity,[5]; [25],19.5 MFI
same,fluorescence intensity,[5]; [26],19.5 MFI
same,fluorescence intensity,[5]; [27],19.2 MFI
same,fluorescence intensity,[5]; [28],18.5 MFI
same,fluorescence intensity,[5]; [29],20.2 MFI
same,fluorescence intensity,[5]; [30],23.2 MFI
same,fluorescence intensity,[5]; [31],28.5 MFI
same,fluorescence intensity,[6]; [24],17 MFI
same,fluorescence intensity,[6]; [25],17 MFI
same,fluorescence intensity,[6]; [26],15 MFI
same,fluorescence intensity,[6]; [27],16.5 MFI
same,fluorescence intensity,[6]; [28],15.8 MFI
same,fluorescence intensity,[6]; [29],17.5 MFI
same,fluorescence intensity,[6]; [30],23 MFI
same,fluorescence intensity,[6]; [31],157 MFI
same,fluorescence intensity,[7]; [24],26.5 MFI
same,fluorescence intensity,[7]; [25],26 MFI
same,fluorescence intensity,[7]; [26],25.8 MFI
same,fluorescence intensity,[7]; [27],26.5 MFI
same,fluorescence intensity,[7]; [28],27 MFI
same,fluorescence intensity,[7]; [29],30.5 MFI
same,fluorescence intensity,[7]; [30],88.2 MFI
same,fluorescence intensity,[7]; [31],672 MFI
same,fluorescence intensity,[8]; [24],26 MFI
same,fluorescence intensity,[8]; [25],25.8 MFI
same,fluorescence intensity,[8]; [26],26.8 MFI
same,fluorescence intensity,[8]; [27],26 MFI
same,fluorescence intensity,[8]; [28],26 MFI
same,fluorescence intensity,[8]; [29],27 MFI
same,fluorescence intensity,[8]; [30],30.5 MFI
same,fluorescence intensity,[8]; [31],50 MFI
same,fluorescence intensity,[9]; [24],19 MFI
same,fluorescence intensity,[9]; [25],19.2 MFI
same,fluorescence intensity,[9]; [26],18 MFI
same,fluorescence intensity,[9]; [27],18 MFI
same,fluorescence intensity,[9]; [28],20.5 MFI
same,fluorescence intensity,[9]; [29],18.8 MFI
same,fluorescence intensity,[9]; [30],25 MFI
same,fluorescence intensity,[9]; [31],80.8 MFI
same,fluorescence intensity,[10]; [24],18 MFI
same,fluorescence intensity,[10]; [25],18.5 MFI
same,fluorescence intensity,[10]; [26],18.5 MFI
same,fluorescence intensity,[10]; [27],19 MFI
same,fluorescence intensity,[10]; [28],20.8 MFI
same,fluorescence intensity,[10]; [29],23.2 MFI
same,fluorescence intensity,[10]; [30],29.5 MFI
same,fluorescence intensity,[10]; [31],39.8 MFI
same,fluorescence intensity,[11]; [24],16.5 MFI
same,fluorescence intensity,[11]; [25],15.5 MFI
same,fluorescence intensity,[11]; [26],18 MFI
same,fluorescence intensity,[11]; [27],17 MFI
same,fluorescence intensity,[11]; [28],16 MFI
same,fluorescence intensity,[11]; [29],18 MFI
same,fluorescence intensity,[11]; [30],28 MFI
same,fluorescence intensity,[11]; [31],234 MFI
same,fluorescence intensity,[12]; [24],24 MFI
same,fluorescence intensity,[12]; [25],24 MFI
same,fluorescence intensity,[12]; [26],23.5 MFI
same,fluorescence intensity,[12]; [27],23.5 MFI
same,fluorescence intensity,[12]; [28],24.5 MFI
same,fluorescence intensity,[12]; [29],24.5 MFI
same,fluorescence intensity,[12]; [30],25 MFI
same,fluorescence intensity,[12]; [31],31 MFI
same,fluorescence intensity,[13]; [24],13 MFI
same,fluorescence intensity,[13]; [25],12.5 MFI
same,fluorescence intensity,[13]; [26],11.5 MFI
same,fluorescence intensity,[13]; [27],14.5 MFI
same,fluorescence intensity,[13]; [28],13 MFI
same,fluorescence intensity,[13]; [29],13.5 MFI
same,fluorescence intensity,[13]; [30],17 MFI
same,fluorescence intensity,[13]; [31],29 MFI
same,fluorescence intensity,[14]; [24],12 MFI
same,fluorescence intensity,[14]; [25],11.5 MFI
same,fluorescence intensity,[14]; [26],11.2 MFI
same,fluorescence intensity,[14]; [27],11.5 MFI
same,fluorescence intensity,[14]; [28],12 MFI
same,fluorescence intensity,[14]; [29],12.5 MFI
same,fluorescence intensity,[14]; [30],15 MFI
same,fluorescence intensity,[14]; [31],78.2 MFI
same,fluorescence intensity,[15]; [24],16 MFI
same,fluorescence intensity,[15]; [25],15 MFI
same,fluorescence intensity,[15]; [26],14.5 MFI
same,fluorescence intensity,[15]; [27],15.5 MFI
same,fluorescence intensity,[15]; [28],18 MFI
same,fluorescence intensity,[15]; [29],18.5 MFI
same,fluorescence intensity,[15]; [30],46.5 MFI
same,fluorescence intensity,[15]; [31],516 MFI
same,fluorescence intensity,[16]; [24],25.5 MFI
same,fluorescence intensity,[16]; [25],24 MFI
same,fluorescence intensity,[16]; [26],23.5 MFI
same,fluorescence intensity,[16]; [27],25.5 MFI
same,fluorescence intensity,[16]; [28],25.2 MFI
same,fluorescence intensity,[16]; [29],26.8 MFI
same,fluorescence intensity,[16]; [30],28 MFI
same,fluorescence intensity,[16]; [31],38 MFI
same,fluorescence intensity,[17]; [24],11 MFI
same,fluorescence intensity,[17]; [25],11.5 MFI
same,fluorescence intensity,[17]; [26],11.5 MFI
same,fluorescence intensity,[17]; [27],11 MFI
same,fluorescence intensity,[17]; [28],10 MFI
same,fluorescence intensity,[17]; [29],12.5 MFI
same,fluorescence intensity,[17]; [30],14.8 MFI
same,fluorescence intensity,[17]; [31],18.5 MFI
same,fluorescence intensity,[18]; [24],24 MFI
same,fluorescence intensity,[18]; [25],24 MFI
same,fluorescence intensity,[18]; [26],23 MFI
same,fluorescence intensity,[18]; [27],23.8 MFI
same,fluorescence intensity,[18]; [28],23.5 MFI
same,fluorescence intensity,[18]; [29],26.5 MFI
same,fluorescence intensity,[18]; [30],31 MFI
same,fluorescence intensity,[18]; [31],149 MFI
same,fluorescence intensity,[19]; [24],15.2 MFI
same,fluorescence intensity,[19]; [25],16.5 MFI
same,fluorescence intensity,[19]; [26],16 MFI
same,fluorescence intensity,[19]; [27],16 MFI
same,fluorescence intensity,[19]; [28],15.5 MFI
same,fluorescence intensity,[19]; [29],17 MFI
same,fluorescence intensity,[19]; [30],17.5 MFI
same,fluorescence intensity,[19]; [31],40 MFI
same,fluorescence intensity,[20]; [24],10.5 MFI
same,fluorescence intensity,[20]; [25],13.2 MFI
same,fluorescence intensity,[20]; [26],11.5 MFI
same,fluorescence intensity,[20]; [27],11.5 MFI
same,fluorescence intensity,[20]; [28],13 MFI
same,fluorescence intensity,[20]; [29],12.5 MFI
same,fluorescence intensity,[20]; [30],18.2 MFI
same,fluorescence intensity,[20]; [31],130 MFI
same,fluorescence intensity,[21]; [24],22.5 MFI
same,fluorescence intensity,[21]; [25],23.2 MFI
same,fluorescence intensity,[21]; [26],21 MFI
same,fluorescence intensity,[21]; [27],23.5 MFI
same,fluorescence intensity,[21]; [28],21.2 MFI
same,fluorescence intensity,[21]; [29],26 MFI
same,fluorescence intensity,[21]; [30],36.5 MFI
same,fluorescence intensity,[21]; [31],45.8 MFI
same,fluorescence intensity,[22]; [24],9.5 MFI
same,fluorescence intensity,[22]; [25],9.5 MFI
same,fluorescence intensity,[22]; [26],9 MFI
same,fluorescence intensity,[22]; [27],9.5 MFI
same,fluorescence intensity,[22]; [28],8.5 MFI
same,fluorescence intensity,[22]; [29],11 MFI
same,fluorescence intensity,[22]; [30],19.5 MFI
same,fluorescence intensity,[22]; [31],162 MFI
same,fluorescence intensity,[23]; [24],21.5 MFI
same,fluorescence intensity,[23]; [25],21 MFI
same,fluorescence intensity,[23]; [26],23 MFI
same,fluorescence intensity,[23]; [27],20.5 MFI

# Given bar-delimited: entries from further up
binder | measurement | setting | value
B1 | fluorescence intensity | [5]; [29] | 20.2 MFI
same | fluorescence intensity | [8]; [30] | 30.5 MFI
same | fluorescence intensity | [9]; [27] | 18 MFI
same | fluorescence intensity | [11]; [26] | 18 MFI
same | fluorescence intensity | [18]; [26] | 23 MFI
same | fluorescence intensity | [19]; [28] | 15.5 MFI
same | fluorescence intensity | [20]; [30] | 18.2 MFI
